# Percent effect of library compounds

Amino acid sequences for entries named in this document (tags omitted).
UniProt I6X8D2, whole entry: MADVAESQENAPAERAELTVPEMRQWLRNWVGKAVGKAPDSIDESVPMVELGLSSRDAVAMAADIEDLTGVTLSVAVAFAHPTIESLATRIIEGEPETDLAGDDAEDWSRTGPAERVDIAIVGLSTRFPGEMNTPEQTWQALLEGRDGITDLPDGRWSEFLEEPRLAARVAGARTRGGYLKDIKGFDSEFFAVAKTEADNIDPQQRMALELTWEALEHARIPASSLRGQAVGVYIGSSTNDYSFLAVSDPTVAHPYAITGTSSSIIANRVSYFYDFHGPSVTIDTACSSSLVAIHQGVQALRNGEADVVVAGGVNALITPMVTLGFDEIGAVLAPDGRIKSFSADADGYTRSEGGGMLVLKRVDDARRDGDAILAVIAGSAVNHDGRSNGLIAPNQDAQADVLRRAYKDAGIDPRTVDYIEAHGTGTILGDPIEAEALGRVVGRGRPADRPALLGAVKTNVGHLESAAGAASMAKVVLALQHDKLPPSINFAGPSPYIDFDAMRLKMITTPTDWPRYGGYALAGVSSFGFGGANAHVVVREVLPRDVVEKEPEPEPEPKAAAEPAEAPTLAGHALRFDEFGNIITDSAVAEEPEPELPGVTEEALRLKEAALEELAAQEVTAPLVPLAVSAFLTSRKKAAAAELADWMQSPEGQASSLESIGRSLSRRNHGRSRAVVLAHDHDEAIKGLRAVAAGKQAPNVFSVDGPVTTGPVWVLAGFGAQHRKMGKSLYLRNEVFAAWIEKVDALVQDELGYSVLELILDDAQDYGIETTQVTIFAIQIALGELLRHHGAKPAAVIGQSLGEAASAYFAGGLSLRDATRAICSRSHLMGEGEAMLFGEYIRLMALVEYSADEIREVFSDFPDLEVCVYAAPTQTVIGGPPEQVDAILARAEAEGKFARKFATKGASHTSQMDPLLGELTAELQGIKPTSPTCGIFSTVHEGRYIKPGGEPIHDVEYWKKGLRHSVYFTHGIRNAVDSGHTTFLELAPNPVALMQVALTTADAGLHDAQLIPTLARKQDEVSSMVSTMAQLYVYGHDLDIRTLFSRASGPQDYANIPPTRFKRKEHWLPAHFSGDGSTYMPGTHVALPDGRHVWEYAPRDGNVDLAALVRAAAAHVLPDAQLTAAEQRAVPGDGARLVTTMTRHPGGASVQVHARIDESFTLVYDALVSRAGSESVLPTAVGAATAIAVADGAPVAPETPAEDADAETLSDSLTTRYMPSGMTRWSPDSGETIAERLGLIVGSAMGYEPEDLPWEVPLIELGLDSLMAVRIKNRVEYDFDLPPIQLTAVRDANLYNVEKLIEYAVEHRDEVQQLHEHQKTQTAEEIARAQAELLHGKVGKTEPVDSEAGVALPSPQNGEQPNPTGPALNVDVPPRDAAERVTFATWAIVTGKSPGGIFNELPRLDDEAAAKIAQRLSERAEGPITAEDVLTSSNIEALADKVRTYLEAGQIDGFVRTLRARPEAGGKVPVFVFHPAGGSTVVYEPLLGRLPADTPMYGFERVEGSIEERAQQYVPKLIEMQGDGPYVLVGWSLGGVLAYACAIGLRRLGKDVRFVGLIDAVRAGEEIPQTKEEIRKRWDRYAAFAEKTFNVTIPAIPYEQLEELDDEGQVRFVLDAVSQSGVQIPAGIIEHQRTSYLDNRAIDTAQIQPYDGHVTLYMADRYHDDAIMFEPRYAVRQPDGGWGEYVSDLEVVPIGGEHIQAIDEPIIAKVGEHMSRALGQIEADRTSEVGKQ
UniProt P9WNZ1, whole entry: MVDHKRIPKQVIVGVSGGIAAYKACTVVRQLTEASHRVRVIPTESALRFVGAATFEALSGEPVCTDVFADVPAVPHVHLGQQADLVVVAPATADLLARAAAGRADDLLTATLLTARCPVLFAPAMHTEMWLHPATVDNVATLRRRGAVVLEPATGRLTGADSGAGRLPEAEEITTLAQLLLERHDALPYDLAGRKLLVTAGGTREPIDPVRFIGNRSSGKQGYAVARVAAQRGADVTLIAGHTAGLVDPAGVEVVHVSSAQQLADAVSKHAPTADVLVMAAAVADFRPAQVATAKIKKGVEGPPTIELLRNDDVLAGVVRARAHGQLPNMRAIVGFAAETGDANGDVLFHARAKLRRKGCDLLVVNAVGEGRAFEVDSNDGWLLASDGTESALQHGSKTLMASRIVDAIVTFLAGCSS
UniProt P9WFT3, whole entry: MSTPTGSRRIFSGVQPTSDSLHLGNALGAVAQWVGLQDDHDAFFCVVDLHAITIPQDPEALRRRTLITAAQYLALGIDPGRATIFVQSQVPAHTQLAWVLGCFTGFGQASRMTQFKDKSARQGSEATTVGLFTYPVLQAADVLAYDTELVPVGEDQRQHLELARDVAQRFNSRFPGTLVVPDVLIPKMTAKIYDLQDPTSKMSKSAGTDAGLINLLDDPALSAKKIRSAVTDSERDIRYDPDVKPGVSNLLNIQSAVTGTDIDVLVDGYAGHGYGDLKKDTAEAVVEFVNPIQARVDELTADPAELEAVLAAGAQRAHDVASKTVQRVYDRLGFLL

Data taken from ChEMBL document CHEMBL3988442, “University of Dundee, Small-Polar-MMV Screening Library” (2021).

Pks13 thioesterase: 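Enzyme assay of the thioesterase domain of polyketide synthase 13; the read-out is not stated. Target: Polyketide synthase Pks13, Mycobacterium tuberculosis (UniProt I6X8D2). Concentration: 30 µM. Higher reads as stronger inhibition (inferred from which compounds were picked for retests). Of about 67,000 compounds tested this way, about 300 (0.46%) reached 50% or more in at least one test.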
CoaBC: 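Coenzyme A biosynthesis protein CoaBC, Mycobacterium tuberculosis (UniProt P9WNZ1). Enzyme assay of CoaBC with a phosphate dye (Biomol Green) read at 650 nm. Tested at 30 µM. Direction is inferred from only a few compounds that gave an IC50; most scored high, so higher reads as stronger inhibition. Most strong results did not repeat in a second test. About 67,000 compounds were tested under these conditions; 0.06% (about 40) showed 50% or more at least once.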
Leishmania in macrophages: 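Cell assay of Leishmania donovani living inside macrophages; the read-out is not stated. Concentration: 30 µM. Higher reads as stronger inhibition (inferred: compounds with an IC50 in retests scored well above the rest). Size under these conditions: about 69,000 compounds, about 1,000 of them at 50% or above in at least one test.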
MtTrpRS: 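Tryptophan-tRNA ligase, Mycobacterium tuberculosis (UniProt P9WFT3). Enzyme assay of tryptophanyl-tRNA synthetase; the read-out is not stated. Concentration: 10 µM. Higher most likely means stronger inhibition; the record gives no direction and few retests gave an IC50. About 65,000 compounds were tested under these conditions; 0.098% (about 64) showed 50% or more at least once.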

The filed quantity is “Percent Effect” (%).
The record does not define 0% and 100%; most values in the screen are far below 50% and negative numbers occur (in some assays of this library far below -100).
Compounds were drawn at random from those tested, without regard to their results.
Two or more numbers in one place are separate tests of the same structure; such repeats can differ widely.
A dash means the value is not listed here; it may have been measured.

structure | Pks13 thioesterase | CoaBC | Leishmania in macrophages | MtTrpRS
COc1c(CNC(c2ccccc2F)c2nccn2C)c(C)nn1C (stereo not shown) | -2.055% | -1.901% | 9.456% | -3.327%
CN1CCN(C(=O)c2nc3c(s2)CCCN3C(=O)C2CC2)CC1.O=C(O)C(F)(F)F | - | - | 0.9873% and 5.383% | -
Cc1nnc(CSc2n[nH]c(-c3ccccn3)n2)o1 | -6.748% | 6.746% | 1.939% | -6.226%
c1ccc2c(c1)OCCCC2NCc1nnc2n1CCCCC2 (stereo not shown) | -14.06% | -2.564% | 0.3925% | 0.6463%
O=S(=O)(C1CC1)N1CCC2(CC1)CC(Oc1cccnc1)CO2 (stereo not shown) | -5.728% | 2.703% | - | 4.506%
Cc1nccn1-c1cc(CNC(=O)NCC2CCCO2)ccn1 (stereo not shown) | 2.369% | 0.1304% | 15.06% | -0.5303%
Cn1ncc(C(=O)N2CCCC(n3cccn3)C2)c1C1CC1 (stereo not shown) | -17.03% | 1.434% | -6.982% | -0.08446%
CC(=O)Nc1ccc(CNc2ccn(Cc3ccccc3)n2)cc1 | -35.85% | 1.648% | 28.91% | -0.4182%
Cn1cc(N2CCC3(CCN(C(=O)c4cccn4C)C3)C2=O)cn1 (stereo not shown) | 4.541% | 1.356% | 22.14% | 2.853%
CCOc1cc(CNc2cc(-c3nc(C)no3)ccn2)ccc1OC | - | 0.9569% | 18.52% | 2.621%
CC(=O)CSc1nc2c(cnn2CCO)c(=O)[nH]1 | -1.182% | 2.046% | 17.21% | -0.2935%
O=C([C@H]1COC[C@H]2CN(CC3CC3)C[C@H]21)N1CCOCC1 | -15.72% | - | - | 1.187%
CC(C)Nc1nc2c(cc1C(=O)N(C)C)CCNCC2 | 0.8218% | 0.1269% | - | -3.882%
CN(C)c1ccc(NC(=O)c2ccnn2C)nc1 | -7.572% | 9.364% | 18.02% | -2.225%
Cc1noc(C2CN(Cc3ccc4c(c3)CCO4)C2)n1 | -31.3% | 6.554% | - | -0.9878%
COc1ccc(S(=O)(=O)NC(=O)COC2CCCC2)cc1 | -1.339% | 3.742% | 7.057% | -3.311%
CCn1c(N)nc2cc(C(=O)N3CCN(c4nccs4)CC3)cnc21 | -11.68% | 13.64% | 20.53% | 1.933%
O=C1CC(NS(=O)(=O)N2CCOCC2)CN1Cc1ccc(F)cc1 (stereo not shown) | -32.9% | 3.823% | 1.424% | -0.09311%
Cc1ccc(CSc2nc(N)cc(NCCC(=O)N3CCCC3)n2)cc1 | -24.58% | 11.29% | 16.44% | 24.77%
CN(C)c1ccc(C(=O)N2CCCC2c2ccc(Cl)cc2)cc1 (stereo not shown) | -25.81% | 9.39% | -6.708% | 2.649%
COc1ccc(C(=O)N2CCN(C(=O)Cn3nccc3C)CC2)cc1 | -32.5% | -5.423% | 32.8% | -4.686%
COC(=O)CN(Cc1ccccc1C)C(=O)COCC1CC1 | -8.736% | 7.661% | 6.652% | 3.511%
Cc1ccsc1C(=O)N1CCN(Cc2cscn2)CC1 | -15.5% | 3.394% | 26.8% | 0%
NC(=O)C1CCN(C(=O)NCCNc2ccccn2)CC1 | -20.87% | 6.102% | 23.93% | -2.225%
COc1ccc(C2SCC(=O)Nc3ccsc32)cc1 (stereo not shown) | -98.06% | 3.096% | -15.99% | -7.638%
Cc1n[nH]c(C2CN(CC(=O)NCc3sccc3C)CCO2)n1 (stereo not shown) | 3.851% | 4.481% | -22.1% | 3.342%
CC(=O)N1CCCC2(C1)CN(C(=O)c1ccncc1)CCO2 (stereo not shown) | -7.602% | 6% | -18.02% | -1.407%
Cc1ccc2nc(C(=O)N3CCNC(=O)C3c3cccc(F)c3)cn2c1 (stereo not shown) | -9.049% | 8.78% | 36.49% | 3.565%
CCOC(=O)[C@]12CCCN(Cc3nccs3)C[C@H]1CN(C(C)=O)C2 | 2.095% | 2.662% | - | -0.9923%
COc1nccc(N2CC[C@@H](N3CCN(C)CC3)[C@H](O)C2)c1C#N | -2.027% | -1.789% | 27.62% | 5.094%
CCS(=O)(=O)N1C[C@H]2CC[C@](O)(c3ccc(C)cc3)[C@H]2C1 | 8.055% | -4.38% | - | -4.348%
Cc1noc(C)c1CCC(=O)N1CCOCC1CC(=O)N1CCCC1 (stereo not shown) | -9.725% | 7.107% | 15.51% | 6.314%
CC(=O)c1cn(CC(=O)N2CCC(O)(CO)CC2)c2ccccc12 | 11.31% | -2.439% | -25.67% | -1.358%
CNC(=O)[C@@H]1CC[C@@H]2[C@@H](CCN2C(=O)N(C)C)O1 | 10.6% | - | - | 2.481%
CNc1nc2c(s1)C(c1cc(Cl)ccc1F)CC(=O)N2 (stereo not shown) | 0.2797% | -0.6329% | 44.26% | -0.8136%
CCN(CC1CCOC1)C(=O)NCc1nnc2n1CCCCC2 (stereo not shown) | -0.3792% | 0% | -13.62% | 0.3871%
COc1ccccc1CN(C)c1nccc(-c2cn(C)nc2C)n1 | 6.218% | 8.929% | 33% | 1.599%
COc1cccc([C@@H]2CN(C3CSCCSC3)C[C@H]2C(=O)O)c1 | -38.88% | -3.306% | 25.47% | -5.393%
O=C(c1cc(Cl)ccc1OC1CCN(C2CCCC2)CC1)N1CCCO1 | -14.56% | -4.959% | -7.283% | 14.8%
Cc1cc(NCc2ccc(S(N)(=O)=O)cc2)nc(C)n1 | -17.52% | 2.526% | 22.51% | 11.63%
CC1(C(=O)NCc2cc(F)cc(F)c2)CCOCC1 | -6.108% | 3.158% | 6.13% | -7.347%
CN(c1ccc(C(=O)NCCN2CCOCC2)c(Cl)c1)S(C)(=O)=O | -7.689% | 5.33% | 17.87% | 0.3228%
Cn1ccnc1CN1CCC(F)(F)C2(CCN(c3cccnc3)C2)C1.O=C(O)C(F)(F)F.O=C(O)C(F)(F)F (stereo not shown) | - | - | 69.63% | -
Cc1occc1C(=O)N1CCC[C@]2(C[C@@H](OCc3ccncc3)CO2)C1.O=C(O)C(F)(F)F | - | - | -9.74% | -
O=C(O)C(F)(F)F.O=C(O)C(F)(F)F.O=C(O)C(F)(F)F.[H][C@]12C[C@@H](CN(C)C)N(C)[C@@]1([H])CCN(c1ncc(F)cn1)C2 | - | - | 18.41% | -
c1csc(N2CCN(Cc3cc4n(n3)CCNC4)CC2)n1 | -25.01% | 3.478% | 14.7% | 1.321%
CCN(CCNC(=O)c1ccccc1OCCOC)C1CC1 | -17.5% | 8.094% | 9.382% | -0.2924%
O=C(CCCN1CCCCC1)N[C@H](C(=O)O)c1cccc(F)c1F | -5.141% | 2.138% | 7.282% | 3.265%
Cn1cc(NC(=O)C2CC(c3ccccc3)C2)ccc1=O (stereo not shown) | -3.927% | 6.053% | 1.82% | -1.337%
CCn1nc(C)cc1C(=O)OCCNc1ncnc2ccccc12 | -11.41% | 12.3% | 24.08% | 12.15%
Cc1ccc(-n2ccnc2-c2cn(C3CCNCC3)nn2)c(Cl)c1 | -4.422% | 1.356% | 17.13% | -3.904%
Cc1cc(C[C@@H]2CCC[C@H]2NCc2ccccc2C)on1 | 16.95% | 1.699% | - | -
Cc1nccn1CCCC(=O)N1CCCC(c2noc(C(C)C)n2)C1 (stereo not shown) | -5.336% | 10.53% | 29.26% | -9.371%
CNC(=O)C1CN(C(=O)COc2ccccc2)Cc2cn(C)nc21 (stereo not shown) | 25.1% | -0.2427% | 5.856% and 19.38% | -
CCOC(=O)CC(c1ccc(OC)cc1)c1c(O)n[nH]c1C (stereo not shown) | -8.207% | -5.425% | -0.4971% | -3.541%

Repeated from the top, 4 entries:

COc1c(CNC(c2ccccc2F)c2nccn2C)c(C)nn1C (stereo not shown) gave Pks13 thioesterase: -2.055%; CoaBC: -1.901%; Leishmania in macrophages: 9.456%; MtTrpRS: -3.327%.
CN1CCN(C(=O)c2nc3c(s2)CCCN3C(=O)C2CC2)CC1.O=C(O)C(F)(F)F gave Leishmania in macrophages: 0.9873% and 5.383%.
Cc1nnc(CSc2n[nH]c(-c3ccccn3)n2)o1 gave Pks13 thioesterase: -6.748%; CoaBC: 6.746%; Leishmania in macrophages: 1.939%; MtTrpRS: -6.226%.
c1ccc2c(c1)OCCCC2NCc1nnc2n1CCCCC2 (stereo not shown) gave Pks13 thioesterase: -14.06%; CoaBC: -2.564%; Leishmania in macrophages: 0.3925%; MtTrpRS: 0.6463%.